Assay results: US20080107707A1, “POLYMERIZABLE ANTIMICROBIAL COMPOSITION” (REGENTS OF THE UNIVERSITY OF COLORADO, priority 2006, published 2008)
≈ marks a conversion by molar mass, not a printed value.

System: S. epidermidis ATCC 12228
Test: Minimum inhibitory concentration (MIC), broth dilution method
Type: cell-based
Settings: Staphylococcus epidermidis, ATCC12228
Protocol: The minimum inhibitory concentration (MIC) and minimum bactericidal concentration (MBC) of the monomer were determined by the broth dilution method. Various amounts of VPA were added to 1 mL of brain heart infusion media (BHI) (Becton, Dickinson, and Co., Sparks, Md.) along with 1×10^5 cfu of S. epidermidis ATCC 12228 (MicroBiologics, Inc., St. Cloud, Minn.) using aseptic technique. Cultures were incubated for 24 hr. at 37° C. The MIC was taken to be the lowest VPA concentration at which no turbidity was observed.

CN[C@H](CC(C)C)C(=O)N[C@H]1C(=O)N[C@@H](CC(N)=O)C(=O)N[C@H]2C(=O)N[C@H]3C(=O)N[C@H](C(=O)N[C@H](C(=O)O)c4cc(O)cc(O)c4-c4cc3ccc4O)[C@H](O)c3ccc(c(Cl)c3)Oc3cc2cc(c3O[C@@H]2O[C@H](CO)[C@@H](O)[C@H](O)[C@H]2O[C@H]2C[C@](C)(N)[C@H](O)[C@H](C)O2)Oc2ccc(cc2Cl)[C@H]1O [vancomycin, reference compound] gave an MIC of 1.12 ± 0.04 µM (≈ 1.62 µg/mL).
